Experimental data: PubChem BioAssay AID1259424 (University of Nebraska Medical Center, 2018)
In all, the deposit lists about 14,000 reagents; shown is a random part of them. 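Higher correlation or smaller distance means closer resemblance to KSR1 loss; control wells, including KSR1 knockdowns, recur on many plates.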 Further read-outs or replicates are left out here. Reagent sequences are not shown. Not given: the time to read-out.

Screen: 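Rank knockdowns across the genome by resemblance to the KSR1 depletion profile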 (primary screen)
System: human HCT116 colon cancer cells
Reagents: siRNA pool against human genes, 50 nM
Measurement: 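Six signature mRNAs by branched-DNA multiplex assay, scaled to two housekeeping genes and non-targeting median, log2; matched to mean KSR1 knockdown profile by Pearson correlation and euclidean distance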
Direction: mean correlation with KSR1 profile: higher = expression change more like KSR1 knockdown; mean distance from KSR1 profile: higher = expression change less like KSR1 knockdown

Against ELMOD1 the deposit lists mean correlation with KSR1 profile -0.0439; mean distance from KSR1 profile 1.24.
Knock-down of DTNBP1 gave: mean correlation with KSR1 profile -0.543; mean distance from KSR1 profile 2.16.
After knock-down of RFNG, the record shows mean correlation with KSR1 profile -0.0709; mean distance from KSR1 profile 1.16.
For ZNF225, the entry reads mean correlation with KSR1 profile 0.517; mean distance from KSR1 profile 1.29.
Knock-down of SDHC gave: mean correlation with KSR1 profile 0.431; mean distance from KSR1 profile 1.27.
Against ALX3 the deposit lists mean correlation with KSR1 profile -0.000834; mean distance from KSR1 profile 1.81.
Against NEDD4L, the entry reads mean correlation with KSR1 profile 0.299; mean distance from KSR1 profile 1.76.

As entered above:
ZNF225, mean distance from KSR1 profile = 1.29
Under “mean distance from KSR1 profile”, SDHC shows 1.27

The results go on:
For C9orf40, the values are mean correlation with KSR1 profile -0.606; mean distance from KSR1 profile 2.82.
With knock-down of MTRES1 the results were mean correlation with KSR1 profile -0.404; mean distance from KSR1 profile 2.62.
GAD1 gave mean correlation with KSR1 profile 0.198; mean distance from KSR1 profile 2.27.
Depletion of STRIP2 gave: mean correlation with KSR1 profile -0.337; mean distance from KSR1 profile 2.19.
Against SIN3B, the values are mean correlation with KSR1 profile -0.563; mean distance from KSR1 profile 3.49.
